Reference: patent US20050074814A1, “Relaxin3-GPCR135 complexes and their production and use” (priority 2003, published 2005)
No constants are given. Whether binding was seen depends on the method and setting. Some entries that bind do so weakly or less than the wild type.

Legend:
[1] = target: T1, rat GPCR135 long form (rat); assay: radioligand binding on COS7 cells transfected with rGPCR135L, total binding vs competition with unlabeled human relaxin3
T1 sequence: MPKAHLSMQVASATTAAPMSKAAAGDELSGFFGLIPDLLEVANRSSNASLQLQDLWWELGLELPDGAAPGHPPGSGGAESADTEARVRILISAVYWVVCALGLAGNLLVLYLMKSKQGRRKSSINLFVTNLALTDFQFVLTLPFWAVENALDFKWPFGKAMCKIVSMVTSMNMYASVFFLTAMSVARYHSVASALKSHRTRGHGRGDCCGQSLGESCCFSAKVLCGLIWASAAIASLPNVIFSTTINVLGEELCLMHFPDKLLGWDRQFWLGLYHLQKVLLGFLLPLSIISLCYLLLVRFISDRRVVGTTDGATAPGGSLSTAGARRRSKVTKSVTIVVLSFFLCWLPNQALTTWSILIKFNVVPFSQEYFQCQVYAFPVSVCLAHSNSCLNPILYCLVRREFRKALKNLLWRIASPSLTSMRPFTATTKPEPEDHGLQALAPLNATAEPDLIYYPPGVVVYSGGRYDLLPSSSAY

[2] = target: T2, mouse GPCR135 (mouse) (UniProt Q8BGE9); assay: radioligand binding on transfected COS-7 cells, with or without 1 uM unlabeled relaxin3 as competitor
T2 sequence: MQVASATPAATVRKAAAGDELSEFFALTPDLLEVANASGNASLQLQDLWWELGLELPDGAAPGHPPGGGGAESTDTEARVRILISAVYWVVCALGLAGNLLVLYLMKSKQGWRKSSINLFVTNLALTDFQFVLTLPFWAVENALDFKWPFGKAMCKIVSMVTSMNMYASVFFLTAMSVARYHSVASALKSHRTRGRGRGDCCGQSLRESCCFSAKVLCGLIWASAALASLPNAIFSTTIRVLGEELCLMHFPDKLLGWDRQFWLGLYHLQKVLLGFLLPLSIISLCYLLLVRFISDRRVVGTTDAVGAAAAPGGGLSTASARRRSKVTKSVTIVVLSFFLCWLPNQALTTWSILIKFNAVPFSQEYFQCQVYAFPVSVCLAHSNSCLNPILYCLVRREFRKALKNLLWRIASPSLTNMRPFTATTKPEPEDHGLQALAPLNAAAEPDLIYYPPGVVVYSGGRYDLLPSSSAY

[3] = target: T1, rat GPCR135 long form (rat); assay: as above
[4] = target: T3, rat GPCR135 short form (rat); assay: as above
T3 sequence: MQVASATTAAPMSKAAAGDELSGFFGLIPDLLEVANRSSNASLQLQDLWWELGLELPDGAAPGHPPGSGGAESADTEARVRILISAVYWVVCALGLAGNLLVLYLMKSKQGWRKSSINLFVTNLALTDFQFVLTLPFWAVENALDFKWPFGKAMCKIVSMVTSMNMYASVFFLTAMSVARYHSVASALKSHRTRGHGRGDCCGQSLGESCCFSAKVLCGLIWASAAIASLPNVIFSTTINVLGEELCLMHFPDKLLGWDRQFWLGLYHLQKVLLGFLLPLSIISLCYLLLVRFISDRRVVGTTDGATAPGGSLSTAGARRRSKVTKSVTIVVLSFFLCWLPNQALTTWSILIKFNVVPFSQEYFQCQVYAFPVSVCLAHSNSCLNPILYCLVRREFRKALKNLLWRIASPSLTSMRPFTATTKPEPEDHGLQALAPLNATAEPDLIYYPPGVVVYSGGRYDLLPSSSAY

[5] = target: T1, rat GPCR135 long form (rat); assay: radio-ligand binding on recombinant cells
[6] = target: T3, rat GPCR135 short form (rat); assay: radio-ligand binding on recombinant cells
[7] = target: T3, rat GPCR135 short form (rat); assay: radioligand binding on COS7 cells transfected with rGPCR135s, total binding vs competition with unlabeled human relaxin3
[8] = target: T2, mouse GPCR135 (mouse); assay: radioligand binding on COS7 cells transfected with mGPCR135, total binding vs competition with unlabeled human relaxin3

Measured: binding

B1: 125I-labeled human relaxin3 (ligand)
chain 1: DVLAGLSSSCCKWGCSKSEISSLC
chain 2: RAAPYGVRLCGREFIRAVIFTCGGSRW
modifications: 125I label (which chain and residue are labelled is not stated)
binds: all assays above
